{"source": "patent US7858608B2", "about": "“Bile acid derivatives as FXR ligands for the prevention or treatment of FXR-mediated diseases or conditions” (Intercept Pharmaceuticals, Inc., priority 2006, dated 2010)", "test_system": "FXR regulated genes (SHP, CYP7α1, SREPB-1c, FAS, BSEP)", "assay": "Regulation of FXR target gene expression in HepG2 cells by qRT-PCR", "conditions": "HepG2, 10 μM, 18 hours", "source_text": "Human hepatocyte cell line HepG2 was used for these studies.\nThe effects of these ligands on FXR responsive genes was then investigated by quantitative reverse transcription PCR (qRT-PCR).", "note": "Some of these results come from one statement about several compounds together. At least one compound was matched to its structure with a doubt left."}
{"compound": "CC[C@H]1[C@@H](O)[C@@H]2[C@H](CC[C@]3(C)[C@@H]([C@H](C)CCC(=O)O)CC[C@@H]23)[C@@]2(C)CC[C@@H](O)C[C@@H]12", "note": "[Compound 6-ECDCA, 6-ethyl-chenodeoxycholic acid]", "values": [{"measurement": "Induction of SHP expression", "result": "2-3 fold"}, {"measurement": "Reduction of the expression of CYP7α1 mRNA", "result": "60-70%"}]}
